According to PMC4044427:
No constants are given. Whether binding was seen depends on the method and setting. In cells and extracts the contact can be indirect. Some entries that bind do so weakly or less than the wild type.

Sequences of proteins named here, by UniProt entry; tags and fusion partners are left off.
UniProt O95251: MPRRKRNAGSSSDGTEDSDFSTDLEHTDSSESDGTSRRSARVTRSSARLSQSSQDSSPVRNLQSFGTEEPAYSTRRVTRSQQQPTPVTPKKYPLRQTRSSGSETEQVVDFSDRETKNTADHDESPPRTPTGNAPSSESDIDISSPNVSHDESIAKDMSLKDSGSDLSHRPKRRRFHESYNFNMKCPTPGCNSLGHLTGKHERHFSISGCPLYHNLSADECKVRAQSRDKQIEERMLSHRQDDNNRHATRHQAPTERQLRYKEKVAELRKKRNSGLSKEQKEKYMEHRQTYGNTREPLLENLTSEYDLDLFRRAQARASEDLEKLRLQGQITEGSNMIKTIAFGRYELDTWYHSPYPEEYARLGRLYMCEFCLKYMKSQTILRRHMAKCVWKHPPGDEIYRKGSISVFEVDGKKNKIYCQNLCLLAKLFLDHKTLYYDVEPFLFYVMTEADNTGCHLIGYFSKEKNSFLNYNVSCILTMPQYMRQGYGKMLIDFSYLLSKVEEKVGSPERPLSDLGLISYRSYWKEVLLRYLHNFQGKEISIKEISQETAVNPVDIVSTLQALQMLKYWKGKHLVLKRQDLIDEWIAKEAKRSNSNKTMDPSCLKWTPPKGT
UniProt Q92831: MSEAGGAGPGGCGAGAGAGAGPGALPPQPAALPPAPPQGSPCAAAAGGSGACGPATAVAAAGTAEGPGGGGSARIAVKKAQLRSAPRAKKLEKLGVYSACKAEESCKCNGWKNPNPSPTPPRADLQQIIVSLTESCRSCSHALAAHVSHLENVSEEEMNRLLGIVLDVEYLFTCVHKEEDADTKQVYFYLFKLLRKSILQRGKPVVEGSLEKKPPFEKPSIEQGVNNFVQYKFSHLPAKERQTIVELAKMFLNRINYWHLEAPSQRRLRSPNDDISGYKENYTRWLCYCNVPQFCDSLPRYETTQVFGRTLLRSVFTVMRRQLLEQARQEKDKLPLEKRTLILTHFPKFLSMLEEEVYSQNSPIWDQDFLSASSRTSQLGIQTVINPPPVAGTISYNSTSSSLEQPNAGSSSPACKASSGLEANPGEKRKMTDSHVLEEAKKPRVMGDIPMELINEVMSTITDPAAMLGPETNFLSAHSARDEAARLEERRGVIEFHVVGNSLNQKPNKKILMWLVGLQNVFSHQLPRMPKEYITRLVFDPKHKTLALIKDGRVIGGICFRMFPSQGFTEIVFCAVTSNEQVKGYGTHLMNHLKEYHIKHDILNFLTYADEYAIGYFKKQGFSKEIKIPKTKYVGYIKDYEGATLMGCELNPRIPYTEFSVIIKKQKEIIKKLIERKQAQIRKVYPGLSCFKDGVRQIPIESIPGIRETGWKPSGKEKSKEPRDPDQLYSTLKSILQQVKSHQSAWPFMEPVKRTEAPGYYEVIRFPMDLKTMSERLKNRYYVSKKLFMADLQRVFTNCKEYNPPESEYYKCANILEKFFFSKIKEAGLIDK
UniProt P0C746: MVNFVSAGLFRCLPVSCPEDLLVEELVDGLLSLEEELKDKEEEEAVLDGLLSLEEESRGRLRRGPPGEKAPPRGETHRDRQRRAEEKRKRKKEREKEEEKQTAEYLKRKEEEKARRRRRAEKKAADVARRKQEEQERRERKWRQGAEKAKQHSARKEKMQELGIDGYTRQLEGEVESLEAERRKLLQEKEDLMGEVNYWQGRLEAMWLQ

What was measured:
[1] = target: HBO1 (UniProt O95251); experiment: co-IP; co-immunoprecipitation; cells, antibodies and conditions not told
[2] = target: p/CAF (UniProt Q92831); experiment: as above

HTLV-1 basic leucine zipper factor (HBZ) (from UniProt P0C746 1-209)
binding [1]: binds
binding [2]: binds
